In PubChem BioAssay AID1487 (National Center for Advancing Translational Sciences (NCATS), 2009) one finds AC50 data, which are given here for 35 compounds.

The test in a line: qHTS Assay for Modulators of Lamin A Splicing. To be noted: HeLa LMNA splicing GFP/RFP minigene ratio, 48 h. In a few lines: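 Read-out is the ratio of GFP to DsRed2 object intensity, acquired by 488 nm laser-scanning cytometry on HeLa lamin A-EGFP minigene reporter cells. Compound incubation 48 hrs at 37 °C in Opti-MEM with 2% FBS; DMSO 0.5% final.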
[1] abbreviates: measured here: GFP splicing reporter channel.
The mark [2] stands for this setting: measured here: RFP viability control channel.

One may read the AC50 as the midpoint of the concentration-response curve, whichever way the signal moves.

This is one part of the list. The main result of the screen is listed elsewhere. These columns were measured beside it and carry no call. Compounds called inactive in the main read-out are mostly missing here. The note in brackets gives the kind of curve behind each potency; many fits are weak.

Take `CN(Cc1cc(Br)cc(Br)c1N)C1CCCCC1`: the AC50 under setting [1] is 35.5 µM [rising, single point] and the AC50 under setting [2] was 31.6 µM [rising, single point].

For `CCCC(c1nnnn1Cc1cccs1)N1CCN(c2ccc(OC)cc2)CC1` (stereo not given), the AC50 under setting [2] was 11.2 µM [rising, single point]. As to `N#CC1=C(N)OC2=C(CC/C2=C\c2ccccc2)C1c1ccccc1` (stereo not given), the AC50 is 22.4 µM [falling, single point] under setting [1] and 25.1 µM [falling, single point] under setting [2].

For the compound `Cc1ccc(C2=NC3(CCCCC3)N=C2SCC(=O)Nc2ccc3c(c2)OCCO3)cc1`, the AC50 under setting [2] is 22.4 µM [rising, single point]. For `O=C(CCc1ccc(S(=O)(=O)N2CCOCC2)cc1)OCc1nc2ccccc2s1`, the AC50 is 35.5 µM [rising, single point] under setting [1] and 0.282 µM [rising, partial curve] under setting [2]. With `Cc1ccc(CNc2nc(-c3cccs3)nc3ccccc23)cc1`, the AC50 runs as follows: under setting [1], 12.6 µM [rising, partial curve]; under setting [2], 20 µM [rising, partial curve]. On to `CCC(=O)Oc1cccc(C(=O)Nc2ccc(-c3nnc(-c4ccco4)o3)cc2)c1`, for which, under setting [2], the AC50 is 22.4 µM [rising, partial curve]. Still for that read-out and setting: the value for `CCOC(=O)N1CCc2c(sc3c2c(=O)n(-c2ccc(Cl)cc2)c(=O)n3CC(=O)Nc2ccccc2)C1` was 35.5 µM [falling, partial curve, poor fit]. `COc1ccc(Cl)cc1C(=O)NC(=S)Nc1cc(-c2nc3ccccc3[nH]2)ccc1C`: the AC50 under setting [1] is 17.8 µM [rising, partial curve, poor fit] and the concentration at half-maximal activity (AC50) under setting [2] is 20 µM [rising, single point]. `CSc1nc(N(C)CCO)c2sc3nc(-c4ccco4)c4c(c3c2n1)CCC4`: the AC50 by setting is: under setting [1], 0.0224 µM [falling, partial curve]; under setting [2], 0.0316 µM [falling, single point].

For `CCOc1ccc(CN2CCN(Cc3nc4c(s3)CCCC4)CC2CCO)cc1` (stereo not given), the AC50 runs as follows: under setting [1], 7.08 µM [falling, full curve, poor fit]; under setting [2], 11.2 µM [falling, partial curve, poor fit]. In the case of `CC(=O)Nc1ccc(-c2csc(NCc3ccccc3)n2)cc1`, under setting [2], the AC50 is 35.5 µM [falling, partial curve, poor fit]. Consider `O=c1oc2cc(O)c(Cl)cc2c2ccccc12`, for which the AC50 under setting [1] was 6.31 µM [rising, partial curve, poor fit] and the half-maximal activity concentration (AC50) under setting [2] is 6.31 µM [rising, partial curve]. For the compound `CCOC(=O)N1CCN(C(=O)COc2cccc3c2CCN(Cc2ccccc2C)C3=O)CC1`, under setting [2], the AC50 is 35.5 µM [rising, single point].

On to `Nc1c(C(=O)Nc2ccc(F)cc2)sc2nc(-c3ccco3)ccc12`, for which the AC50 is, setting by setting: under setting [1], 10 µM [rising, partial curve, poor fit]; under setting [2], 14.1 µM [rising, partial curve].

In the case of `O=C(CNc1ccc2ccccc2c1)N/N=C/c1cc2ccccc2nc1Cl`, under setting [2], the AC50 was 20 µM [rising, single point].

As for `O=C(CCc1ccccc1)NC(=S)Nc1cccc(Br)c1`, under setting [2], the AC50 is 3.55 µM [falling, partial curve]. Same read-out and setting: for `COc1ccc(/C=N/N2CCN(C3c4ccccc4-c4ccccc43)CC2)cc1O` the value was 11.2 µM [rising, partial curve, poor fit]; for `Cc1nnnn1-c1ccc(CC(=O)O)cc1`, 0.0224 µM [rising, full curve, poor fit].

On to `Cc1ccc(C(=O)Nc2ccc(C(=O)/C=C/c3cccs3)cc2)cc1`, for which the concentration at half-maximal activity (AC50) under setting [2] was 25.1 µM [falling, single point].

For the compound `Cn1c(SCC(=O)c2ccc(F)cc2)nc2cccnc21`, the AC50 under setting [1] was 12.6 µM [rising, single point] and the AC50 under setting [2] was 17.8 µM [rising, single point]. In the case of `Cc1csc(NC(=O)c2cc3c(C)nn(Cc4ccccc4Cl)c3s2)n1`, the concentration at half-maximal activity (AC50) was 15.8 µM [rising, single point] under setting [1] and 20 µM [rising, single point] under setting [2]. Consider `Cc1ccc(NC(=O)CSc2nn(-c3ccccc3)c(=S)s2)cc1S(=O)(=O)N(C)C`, for which the AC50 was 3.16 µM [rising, partial curve] under setting [1] and 3.55 µM [rising, full curve] under setting [2].

Consider `O=C(CCN1CCN(Cc2ccccc2)CC1)Nc1cccc(Cl)c1`, for which the AC50 under setting [1] was 20 µM [rising, single point].

On to `O=C(Nc1cccc(Cl)c1)c1ccc2nc(Cc3ccccc3)oc2c1`, for which the AC50 under setting [2] is 5.62 µM [rising, single point]. `O=S(Cc1ccc(Cl)cc1)CC(O)COCc1ccc(Cl)cc1` (stereo not given): the AC50 under setting [1] was 5.01 µM [rising, full curve, poor fit]. In the case of `COc1ccc(NC(=O)c2cc(CN3C(=O)c4ccccc4C3=O)ccc2OC)cn1`, under setting [2], the AC50 is 14.1 µM [rising, single point]. Same read-out and setting: the value for `Cc1ncc(COC(=O)C(C)C)c2cc(C(=O)Nc3ccccc3C(F)(F)F)c(=O)oc12` was 0.00316 µM [rising, full curve, poor fit]; that for `Cc1cccc(N2C(=O)CS(=O)(=O)C23C(=O)N(C)c2ccccc23)c1` (stereo not given) was 2.24 µM [rising, full curve]. As to `Cc1c(C#N)c(N)nc2c3c(sc12)NC(=O)CC3c1ccc(Cl)cc1` (stereo not given), the AC50 was 35.5 µM [falling, single point] under setting [1] and 35.5 µM [falling, single point] under setting [2]. Regarding `O=c1[nH]c(=O)c2nc3c4ccccc4c4ccccc4c3nc2[nH]1`, the AC50 under setting [2] is 25.1 µM [falling, partial curve].

As for `CCNC(=O)Cn1c(=O)c(=O)n(Cc2ccccc2)c2ccc(Cl)cc21`, under setting [2], the concentration at half-maximal activity (AC50) is 35.5 µM [rising, single point]. As for `O=C1CCC(=O)N1c1ccc(S(=O)(=O)N2CCCC2)cc1`, the AC50 is, setting by setting: under setting [1], 0.00447 µM [falling, full curve, poor fit]; under setting [2], 0.00316 µM [falling, full curve, poor fit]. For the compound `CCOC(=O)c1nc(N2CCN(C(=O)OCC)CC2)c2c3c(sc2n1)CCCC3`, the AC50 under setting [2] is 35.5 µM [rising, single point]. Regarding `CCCN(CC1CC1)c1nc(C)nc(Nc2c(Cl)cc(Cl)cc2Cl)c1Cl`, the AC50 is, setting by setting: under setting [1], 6.31 µM [falling, partial curve, poor fit]; under setting [2], 35.5 µM [rising, single point].
